In PubChem BioAssay AID504444 (National Center for Advancing Translational Sciences (NCATS), 2011):
The campaign covered roughly 360,000 compounds. About 7,500 (2.1%) were called active. The shares of active, inactive and inconclusive entries below differ from those in the screen. Calls follow the shape of the dose curve; as a rule, active = well fitted inhibition curve with a large enough effect; inconclusive = small, poorly fitted or top-dose-only effect, or effect the other way; inactive = flat fitted curve, though single readings scatter. Where the call is inconclusive, the potency comes from a doubtful curve fit.

Experiment: Nrf2 qHTS screen for inhibitors; also: nearly all actives have a fitted effect of over 60% in size
Details: A549 ARE-Fluc reporter, luciferase luminescence, 18-24 h; activity change, negative = inhibition: at 46 µM (top of the series)
Summary of the method: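 In this cell-based qHTS, ARE-driven firefly luciferase in A549 cells reports Nrf2 activity; the luminescent signal after BugLite lysis is the measured value, with a prior CellTiter-Fluor read for cell health.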
% is scaled to controls: 0 for no effect and ±100 for the full control effect; potency is read from the fitted curve at half-maximal effect.

Structure (SMILES) | Potency | activity change, negative = inhibition
O=C(Nc1cccc2ccccc12)N1CCCN(c2c(Cl)cncc2Cl)CC1 | inconclusive: 20.6 µM [activator, single point] | –
CC(C)n1cnc2c(NCc3ccccc3)cc(N[C@H](C)CO)cc21 | inconclusive: 25.9 µM [falling, single point] | –
N=c1nc2n(cc1F)C1OC(CO)C(O)C1O2 (configuration not stated) | active: 0.13 µM | –
c1cnc2nc(-c3ccc4c(c3)OCO4)cn2c1 | inconclusive: 1.3 µM [activator, full curve, poor fit] | –
O=C(Nc1ccc2c(c1)OCCO2)c1ccc(Cl)c(S(=O)(=O)N2CCOCC2)c1 | – | inactive: -12.9%
O=C(Nc1ccc(C(F)(F)F)cc1)c1ccc2ncsc2c1 | inconclusive: 1.46 µM [activator, full curve, poor fit] | –
Cc1ccc(S(=O)(=O)N(C)CCCC(=O)Nc2ccc(C)cc2C)cc1 | – | inactive: -15.8%
O=C(NCC1CCCO1)C(c1ccncc1)N(Cc1cccs1)C(=O)CN1C(=O)c2ccccc2S1(=O)=O (configuration not stated) | inconclusive: 1.46 µM [falling, partial curve, poor fit] | –
CCC(=O)N1CCc2cc(Br)cc(S(=O)(=O)N3CCCC(C(=O)NC(C)(C)C)C3)c21 (configuration not stated) | – | inactive: -12%
Cc1cccc(C(=O)Nc2nc3c(s2)CCCC3)c1 | inconclusive: 0.58 µM [activator, full curve, poor fit] | –
c1ccc(CNc2ncnc3[nH]ncc23)cc1 | inconclusive: 23.1 µM [falling, partial curve] | –
CCOC(=O)N1CCc2c(sc3c2c(=O)n(CCc2ccccc2)c(=O)n3Cc2ccc(C)cc2C)C1 | – | inactive: -12.9%
COc1cc([N+](=O)[O-])ccc1N/C=C/C(=O)c1cccs1 | inconclusive: 29.1 µM [falling, single point] | –
C(#Cc1ccc2c(c1)COc1c3ccccc3nn1-2)c1ccccc1 | inconclusive: 16.4 µM [activator, partial curve] | –
Cc1ccccc1-c1nnc(CS(=O)(=O)c2ccccc2)o1 | inconclusive: 0.651 µM [activator, full curve, poor fit] | –
O=C(c1ccc(-c2ccccc2)cc1)N1CCC(C(=O)N2CCCC2)CC1 | inconclusive: 5.8 µM [falling, partial curve, poor fit] | –
CC(SC1=NCCN1S(=O)(=O)c1ccc(F)cc1)c1ccccc1 (configuration not stated) | inconclusive: 29.1 µM [falling, single point] | –
O=C(NC(=S)Nc1ccccc1)c1cncc(C#Cc2ccccc2)c1 | inconclusive: 32.6 µM [activator, single point] | –
CCC1Oc2ccc(C)cc2N(CC(=O)NCCC2=CCCCC2)C1=O (configuration not stated) | inconclusive: 25.9 µM [falling, partial curve, poor fit] | –
Cc1ccccc1-c1nnc(Cc2ccccc2)o1 | inconclusive: 10.3 µM [activator, partial curve, poor fit] | –
Nc1c2c(nc3ccc(Br)cc13)N(c1ccccc1)CC2 | inconclusive: 29.1 µM [activator, single point] | –

Structure (SMILES) | Potency | activity change, negative = inhibition
O=Nc1ccc(O)c2ncccc12 | inconclusive: 14.6 µM [falling, partial curve, poor fit] | –
O=Cc1ccc(-c2ccc(F)cc2)o1 | inconclusive: 29.1 µM [activator, single point] | –
CCCc1nc2ccccc2c(C(=O)OCC(=O)NC2CC2)c1CC | inconclusive: 16.4 µM [falling, partial curve] | –
Cc1ccc2c(Cl)cc(Cl)c(OCC(=O)Nc3cc(S(=O)(=O)N(C)C)ccc3C)c2n1 | active: 14.6 µM | –
CC(=O)c1cccc(NC(=S)NC(=O)c2ccc(Br)cc2)c1 | inconclusive: 2.31 µM [activator, partial curve, poor fit] | –
Cc1ccc2nc(NCCC(=O)O)nc(-c3ccccc3)c2c1 | inconclusive: 0.517 µM [activator, full curve, poor fit] | –
COc1ccc2sc(NC(=O)CC(C)C)nc2c1 | inconclusive: 10.3 µM [activator, partial curve, poor fit] | –
O=[N+]([O-])c1ccc(N2CCCCC2)c(Cl)c1N1CCCCC1 | inconclusive: 3.66 µM [activator, partial curve] | –
O=C(O)c1ccc(N2C(=O)/C(=C/C=C/c3ccccc3)SC2=S)cc1 | – | inactive: -3.47%
O=C(NCCCN1CCOCC1)c1ccc(Sc2ccccc2Cl)c([N+](=O)[O-])c1 | – | inactive: 8.82%
NC(=O)c1nsc(C(=O)N(CC(=O)NCc2ccco2)c2ccccc2F)c1N | inconclusive: 4.11 µM [activator, full curve, poor fit] | –
COc1ccc(C)cc1N=Nc1ccc(O)c2ncccc12 | inconclusive: 29.1 µM [falling, single point] | –
COc1cc(OC)cc(-c2cc3nc4c(c(N5CCN(c6ncccn6)CC5)n3n2)CCCC4)c1 | – | inactive: -9.7%
CN(Cc1nc2ccc(F)cc2[nH]1)C(=O)C1CCC(=O)N(C2CC2)C1 (configuration not stated) | – | inactive: 7.08%
O=C1C2C3c4ccccc4C(c4ccccc43)C2C(=O)N1c1nc(-c2ccccc2)cs1 (configuration not stated) | inconclusive: 11.6 µM [falling, partial curve, poor fit] | –
O=C(CCC(=O)OCC(=O)c1ccc(Cl)cc1)NC1CCCCC1 | inconclusive: 6.51 µM [activator, single point] | –
Cc1cc(CNCc2cn(C)nc2-c2ccc(Oc3ccccc3)cc2)on1 | inconclusive: 32.6 µM [falling, partial curve, poor fit] | –
COc1ccc(Cl)cc1NC(=O)C1CCCN(S(=O)(=O)c2ccc3c(c2)CCCC(=O)N3)C1 (configuration not stated) | inconclusive: 18.4 µM [falling, single point] | –
CC(C)N1C(=O)CCN(C=O)c2ccccc21 | inconclusive: 4.61 µM [falling, partial curve, poor fit] | –
Cc1ccc(/C=C/C(=O)N2CCc3ccccc32)o1 | inconclusive: 0.461 µM [activator, full curve, poor fit] | –
O=C(C1CCCCC1)N1CCCC(c2nc(-c3ccc(F)cc3)no2)C1 (configuration not stated) | inconclusive: 29.1 µM [falling, single point] | –

Single records (already shown):
CN(Cc1nc2ccc(F)cc2[nH]1)C(=O)C1CCC(=O)N(C2CC2)C1 (configuration not stated) is listed with activity change, negative = inhibition: inactive: 7.08%
COc1ccc(Cl)cc1NC(=O)C1CCCN(S(=O)(=O)c2ccc3c(c2)CCCC(=O)N3)C1 (configuration not stated) is listed with Potency: inconclusive: 18.4 µM [falling, single point]
